The results in this text go back to patent publication EP4818148A1, “THREE-DIMENSIONAL NETWORK STRUCTURED METAL COMPLEX CRYSTAL AND METHOD FOR DETERMINING MOLECULAR STRUCTURE OF ORGANIC COMPOUND USING SAME” (The University of Tokyo, priority 2023, dated 2025).

The series in a line: Ability to be analyzed for crystal structure: organic compound fixed in metal complex crystal 1, X-ray crystallography. The following applies: host metal complex crystal 1; 50°C, 17 hours.

Regarding `O=Cc1ccc2c3ccccc3c3ccccc3c2c1` [2-triphenylenecarboxaldehyde], the “Determination of the entire molecular structure by X-ray diffraction images” value is on record as “the entire molecular structures were determined by X-ray diffraction images”.
With `Fc1cccc2ccccc12` [1-fluoronaphthalene], the “Determination of the entire molecular structure by X-ray diffraction images” value is given as “the entire molecular structures were determined by X-ray diffraction images”.
